Test results: PubChem BioAssay AID1347423 (Functional Genomics Laboratory (NCATS/FGL), 2020)
Screen size: about 52,000 sequences; about 210 (0.4%) were called active.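 How the source made its calls: active means gene whose silencing raises cell survival under the drug, median off-target-corrected z-score across its silencing RNAs 2 or more; inactive means the rest.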 The list shows a part of the results.

assay: Resistance to Poly (ADP-Ribose) Polymerase inhibitor: Gene Identification via Genome-wide siRNA Screen; settings: mouse BRCA2 R2336H ES cells, olaparib, CellTiter-Glo viability; hits give high values
How it was run: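 Genome-wide siRNA screen (3 siRNAs/gene, 20 nM) in mouse ES cells carrying hypomorphic BRCA2 R2336H; olaparib 500 nM added 48 h post-transfection, CellTiter-Glo viability 72 h later. Normalized to plate-median negative control; MAD z-scores, gene median, seed-adjusted.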

| Sequence | z-score |
| --- | --- |
| GCUUGUAGGUGGAUACAUGTT against Slc30a4 | inactive: 0.925 |
| GGAGAUGAUGUGCUUCAGUTT against 4831428F09 | inactive: -0.663 |
| GCAGUUUUGGUGCAUGGGATT against Coq6 | inactive: 1.29 |
| GGUGUCAUCACAAAAAGAATT against Epha1 | inactive: 0.508 |
| GGACAGAAAGUUGUCUUUATT against C530043G21Rik | inactive: -0.801 |
| GGUGAGACUAUAAAGAUAATT against 9230101H05Rik | inactive: 1.23 |
| GGAUUCCUACAGCUUCACGTT against 1700049E17Rik | inactive: -0.937 |
| GCUCAGCUGAAAAACUUGCTT against 4930564N15Rik | inactive: 0.224 |
| CCAGUACCCGUCUGAAAAGTT against Olfr215 | inactive: -1.22 |
| GGAAGAUGAUGAGAUAAACTT against Herpud1 | inactive: 0.387 |
| GGAUAAAAGACUGAACAGUTT against Gpatc1 | inactive: 1.97 |
| GAGCCAGAAGAUAACCAAGTT against Dpm2 | inactive: -1.72 |
| GGCCUUGAAGGAGUAUGAGTT against Atp2a3 | inactive: -0.163 |
| CGGAUUGGCCAACAACGCATT against Slc24a3 | inactive: -0.0318 |
| CCUUAUCAAAAGCAUGCUUTT against Kist | inactive: 1.49 |
| GGAAAAACAUGCCAAAAAATT against 0610027B03Rik | inactive: 0.0985 |
| GAAAAAUGUGCAAGAGACUTT against Olfr1218 | inactive: 0.93 |
| GCUACUUUUUAGUGGUUGUTT against Olfr1298 | inactive: -0.365 |
| GGCAGAAAAUUCUUACAAATT against 2810022L02Rik | inactive: 0.0333 |
| GGUUGAUAACAGGAAGUUUTT against Spred2 | inactive: -0.283 |
| GCUCCUUGCUUGAUUCUACTT against D730018G16 | inactive: -0.805 |
| GCUCUACCCUGAAGAUAUATT against Immt | inactive: 0.207 |
| CCCAAAUACCUACCAUCUCTT against Slc4a9 | inactive: 2.23 |
| CCACAUCUGAACAUUAGUCTT against Phxr1 | inactive: -0.00456 |
| GGUUUUUGUGGAGACACUGTT against Ap3s2 | inactive: -0.262 |
| GGACAGGAAGAUGUGGCUUTT against Ly6d | inactive: -0.595 |

| Sequence | z-score |
| --- | --- |
| GCCAAGUUUCUUUUAGAGATT against Hmgcr | inactive: -0.838 |
| GGUUAAAGACCAUGUUUAUTT against Moxd1 | inactive: -0.796 |
| GCGGUCCAUCAUCAAACUCTT against AW060207 | inactive: 0.904 |
| GGAACGAUGGAUACUUGGGTT against Porcn | inactive: 1.39 |
| GGCAGAUGUAACCAUAUCATT against Nfe2 | inactive: -0.278 |
| GGCAGAAGCACUGUGGACUTT against Agr2 | inactive: 0.588 |
| CCUCUGCGUAGUUUCCUUGTT against Olfr345 | inactive: -0.597 |
| GGCUCCUCAAAGCUAAAAATT against 1700001C19Rik | inactive: 1.92 |
| GGUCACUCAGAAUAAUGCUTT against BC034664 | inactive: -1.36 |
| CCUUUCAGACCAGUUCAUUTT against Gsbs | inactive: -0.686 |
| GCCUUCAAGCCAAAGAUAGTT against AI461788 | inactive: -0.699 |
| GGAAUCGCCAUCUGCAUCUTT against Cyyr1 | inactive: 1.4 |
| GCAUUUCACCUGGAGCCUUTT against Zfp108 | inactive: -1.78 |
| GGCAUUCUUUGGGAAGUAGTT against Slc9a2 | inactive: 0.41 |
| GCUUUUUCUACGCGUCUCATT against 1700084P21Rik | inactive: -0.886 |
| GGGCGUGAUUUAUUUCUACTT against BC024997 | inactive: -0.892 |
| GGGUCCAUCAAGAAUUCUCTT against Rab5c | inactive: 0.879 |
| GGUCCCAUAUACCAGAUCUTT against Slc3a1 | inactive: -1.81 |
| GGUGUCCAAUUGCCCUAUCTT against Tnfrsf12a | inactive: 1.13 |
| GCGCCUUAUGCAGGAAUACTT against Rabgap1 | inactive: 0.605 |
| GGAAGCAGCUACUGGAAGATT against Pscd4 | inactive: -0.33 |
| GGAUGAUAUCGGAGCCUGCTT against Clec4g | inactive: -1.12 |
| GCUGGGUCAAACAUGACGUTT against Klhl17 | inactive: 0.633 |
| CCAACUGUUGGUGAUGAUGTT against Cpsf6 | inactive: -3.05 |
| GGUCCUGUUGAGAAUUUAATT against Zdhhc15 | inactive: 0.677 |
| CGUAAGAAAGACUCGUUUATT against AI595366 | inactive: -1.33 |

| Sequence | z-score |
| --- | --- |
| GGAGAGAGAUUUUCAAUAUTT against E330008O22Rik | inactive: -0.227 |
| GGCCAAAAAAACAUACAAGTT against Zfp295 | inactive: -0.0319 |
| GCAAAAUCACGCUAACGACTT against Uts2 | inactive: 0.79 |
| GGUGAACUCAGACUGAAUGTT against 1700021F05Rik | inactive: 0.864 |
| GGUGACACUUCUUGUGGAUTT against 2410004N11Rik | inactive: -0.17 |
| CCAUCGUAUUUAACCACAUTT against Dtymk | inactive: 0.621 |
| GGAAUCGAGAUAUAAAAGGTT against Olfr352 | inactive: -0.179 |
| CCCAGUAAUCCGUUACAAATT against Cyp51 | inactive: -0.664 |
| GGCUUUAGAGAAAGAAGUATT against Vdrip | inactive: 0.273 |
| CCUGAGUGAAAACUACUUATT against Nagk | inactive: 0.436 |
| GGAUAGAACACUUUCUUUUTT against Gyk | inactive: 0.148 |
| GCUGCUAUCCAGAAGGUAUTT against Egr2 | inactive: 1.88 |
| GGUUCUUCAGGACAAUGUGTT against 9530090G24Rik | inactive: -0.225 |
| GGUUCGUGUAACCAAAGUCTT against 2310039E09Rik | inactive: -1.76 |
| GGAAGGUUCCCUUGAGUUCTT against 4930556P03Rik | inactive: -1.81 |
| GGGAACAGAAGUCAAGGCATT against Arch | inactive: -0.775 |
| GGCUGGGCUCUAUGGAUUATT against Fasn | inactive: 2.21 |
| GGCUAGUGGUUUAUUUAUGTT against Pafah1b1 | inactive: 0.0695 |
| GGGAUUCGGUGAAGAUUUGTT against Nfe2l1 | inactive: -1.15 |
| CGACAGUUACUUGCCCAGATT against Rasgrp3 | inactive: -1.45 |
| GGAUCAUGUGUGAAAUCCUTT against Harsl | inactive: 1.11 |
| GCCUUAUUAGAGAAAAGAGTT against Krt2-1 | inactive: -2.01 |
| GCGAAUGUAGUGUAUUAUGTT against Prkcm | inactive: 0.0536 |
| GGAGAUUUAUACACACUUGTT against Snx17 | inactive: -0.118 |
| GGGAAACUCAAACUGAUUGTT against 9930104L06Rik | inactive: 0.614 |
| GGAAAACACAAGCAAUACATT against Pus3 | inactive: -0.383 |

Pulled one by one from above:

| Sequence | z-score |
| --- | --- |
| GGCUGGGCUCUAUGGAUUATT against Fasn | inactive: 2.21 |
| GCUGCUAUCCAGAAGGUAUTT against Egr2 | inactive: 1.88 |
| CCUGAGUGAAAACUACUUATT against Nagk | inactive: 0.436 |
| CCUUUCAGACCAGUUCAUUTT against Gsbs | inactive: -0.686 |

The list continues:

| Sequence | z-score |
| --- | --- |
| GGAAGUGAGUUUCAAAGCCTT against Hist1h1t | inactive: -0.503 |
| GGAAAACAGAUACGUGCAUTT against Ccne2 | inactive: 1.21 |
| GGAAGGAGAAAAGCUUUCUTT against Olfr992 | inactive: -0.105 |
| GGGAUCAACAUGAUAUUUUTT against Lrrc21 | inactive: -0.124 |
| CCGGUGGUAGUUGGUUUAATT against Atp1b1 | inactive: -1.03 |
| GCUUCAGAACAAGUCCCUGTT against 2410008K03Rik | inactive: 0.561 |
| CCUCUGUUUGUGCGCCAUATT against Uqcrfs1 | inactive: 1.2 |
| GGCCAGCUGAAAGAGGUUCTT against 2310003L22Rik | inactive: -0.0092 |
| GCACACCCAAUGCUCUAAGTT against Mare | inactive: 0.284 |
| GAAAGACAAGAAGCAGAUGTT against Olig2 | inactive: -1.23 |
| GCAAGUUCGAAUCCUCCGUTT against Dach2 | inactive: 0.747 |
| GCAUAUGGAGCAGUCAUUGTT against LOC619945 | inactive: 0.402 |
| GGAUUGUACGCUUUUAUGATT against Fzd1 | inactive: 0.968 |
| AAAAAUGUCGGAUUCCCAATT against Gpr113 | inactive: 0.745 |
| GGUUACCUACCUGAUGCCATT against Cd6 | inactive: -0.0209 |
| GGACGGUGACAAGAACAACTT against Tnnc1 | inactive: -0.0203 |
| GGAUGACCUUGAAAGCAGUTT against Usp29 | inactive: -0.694 |
| GGCUCAGUACUUUCUAAAATT against V1rg1 | inactive: -0.536 |
| GGAAAGAAAGUUCUUUAGATT against D330023I21Rik | inactive: 0.809 |
| GGAAUACAGGUUUUCUUAATT against Raf1 | inactive: 1.16 |
| GGAAUUGAGAAAUCUAAUGTT against Rev1l | inactive: -0.921 |
| GGUCAUGACCCAUGUCAGCTT against Junb | inactive: 1.84 |
| GGAGAAAUAACUGAAAUUCTT against Klhl13 | inactive: 0.783 |
| CCAUGCAUCUAAGUCUCGATT against Trpm3 | inactive: 1.35 |
| GGAAUGACAAGAUUAUUGUTT against Ercc3 | inactive: 2.19 |
| CCAUCUCCUUAUGGGCAAUTT against Stat6 | inactive: -0.199 |
